Measured values from PMC3236198.
Construct, isoform or probe ends are uncertain for at least one entry. At least one verdict was read from the data and is not stated in words by the source.

The chains behind the UniProt entries cited, without tags or fusion partners. Where a name states a change or a piece, a line headed by the entry shows the natural chain unless it says otherwise.
UniProt P0AGE0: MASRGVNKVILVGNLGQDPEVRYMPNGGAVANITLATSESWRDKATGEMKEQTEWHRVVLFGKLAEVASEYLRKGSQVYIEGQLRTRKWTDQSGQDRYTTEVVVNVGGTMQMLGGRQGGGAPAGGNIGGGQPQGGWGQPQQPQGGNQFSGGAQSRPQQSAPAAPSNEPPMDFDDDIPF

Molecular target: EcoSSB (Escherichia coli) (UniProt P0AGE0)
Test: EMSA
Conditions: EMSA: 20 mM Tris-HCl pH 8.0, 50 mM NaCl, 5% glycerol, 50 µg/ml BSA, 4 °C, 30 min, 1 pmol DNA with 0.2, 2 or 10 pmol SSB in 15 µl; recombinant protein; label: 5'-32P; single-stranded DNA

“GCACTAGTGCGGATAGCCCCGTGTTGTTGTCTGACCCCCGACCCCGACGGCAATGCGGGGCAATCCCCTGGAGGCCTGC [79mer ssDNA]”: binds.
